The target of this assay is human M4 mAChR-Rluc8 (human) (UniProt P08173). In words: FRET or BRET; FlpInCHO cells transiently co-expressing M4 mAChR-Rluc8 and β-arrestin-2-eYFP; HBSS pH 7.4; coelenterazine h 5 μM; ACh and PAMs co-added for 5 min at 37 °C; read on LUMIstar Omega. On the technique in general: In BRET a luciferase serves as donor, and the signal depends on an acceptor being close.

Chains of the proteins cited; added tags and fusions are not shown.
UniProt P08173: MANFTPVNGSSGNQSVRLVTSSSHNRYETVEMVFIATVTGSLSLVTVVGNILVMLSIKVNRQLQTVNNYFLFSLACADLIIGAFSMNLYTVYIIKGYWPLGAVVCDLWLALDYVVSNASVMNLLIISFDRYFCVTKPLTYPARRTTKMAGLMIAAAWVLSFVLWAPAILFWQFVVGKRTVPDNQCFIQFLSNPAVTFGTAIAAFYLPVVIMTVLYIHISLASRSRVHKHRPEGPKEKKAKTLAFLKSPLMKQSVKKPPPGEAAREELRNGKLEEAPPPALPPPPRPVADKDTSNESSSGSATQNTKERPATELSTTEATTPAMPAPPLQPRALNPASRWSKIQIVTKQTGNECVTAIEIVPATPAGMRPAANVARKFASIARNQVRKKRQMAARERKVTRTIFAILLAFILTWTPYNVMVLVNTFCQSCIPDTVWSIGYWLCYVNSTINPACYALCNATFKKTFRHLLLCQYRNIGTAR
UniProt P32121: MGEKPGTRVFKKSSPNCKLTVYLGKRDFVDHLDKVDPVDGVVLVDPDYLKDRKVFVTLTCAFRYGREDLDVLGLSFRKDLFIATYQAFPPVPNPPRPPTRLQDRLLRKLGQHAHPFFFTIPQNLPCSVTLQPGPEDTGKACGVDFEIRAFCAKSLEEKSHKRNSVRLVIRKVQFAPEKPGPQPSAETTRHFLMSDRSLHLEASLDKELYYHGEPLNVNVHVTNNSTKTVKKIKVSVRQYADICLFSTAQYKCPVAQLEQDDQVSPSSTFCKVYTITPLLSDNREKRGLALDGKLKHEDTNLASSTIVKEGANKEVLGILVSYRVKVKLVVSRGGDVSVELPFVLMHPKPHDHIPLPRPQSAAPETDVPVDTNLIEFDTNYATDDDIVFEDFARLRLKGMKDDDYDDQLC

These are yes or no findings as the source states them, for the method shown. Binding seen in cells or lysates may run through a third protein. Some results given as binding are weak or reduced against the parent protein; the word gives no strength.

For the substance “β-arrestin-2-eYFP (from UniProt P32121 1-409)”, the binding entry is recorded as “binds”.

(Values after PMC7616163.)
